About 2,100 (0.66%) of roughly 320,000 compounds were called active. The shares of active, inactive and inconclusive entries below differ from those in the screen. Calls come from the whole dose curve; as a rule, active = well fitted inhibition curve with a large enough effect in the signal ratio, with a control signal flat (not every such curve was filed as active); inconclusive = small, poorly fitted or top-dose-only effect, or effect the other way, or a change in a side signal; inactive = flat fitted curve, though single readings scatter; the % refers to the signal ratio. Where the call is inconclusive, the potency comes from a doubtful curve fit.
assay: qHTS Assay for Lipid Storage Modulators in Drosophila S3 Cells; conditions: BODIPY lipid droplet fluorescence, 18-24 h, cells fed with added oleic acid; lipid storage change, negative = inhibition: at 46.1 µM (top of the series) unless noted
In short: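 Laser-scanning cytometry quantifies lipid droplet accumulation (500–530 nm total intensity; droplet/cell object ratio) in oleic acid-fed (400 uM added) Drosophila S3 cells treated with a concentration series. 20 uM Triacsin C defined 100% inhibition.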
% is set by controls: 0 for no effect and ±100 for the full control effect; potency is the fitted concentration of half-maximal effect.

SMILES | lipid storage change, negative = inhibition | Potency
O=C(N/N=C/c1cc([N+](=O)[O-])ccc1O)C12CC3CC(CC(C3)C1)C2 | inconclusive: 28.6% | –
CCOc1ccccc1C(=O)OCC(=O)NCC1CCCCC1 | inconclusive: 31.2% | –
CCN(CC)S(=O)(=O)c1ccc(Cl)c(NC(=O)COC(=O)C2CCCCC2)c1 | – | inconclusive: 5.8 µM [activator, single point]
Cc1nc2ccccc2nc1OCc1ccccc1 | inconclusive: -14.4% | –
CC(=O)Nc1nn(C)c2nc(C)cc(C)c12 | inconclusive: 156% | –
CN(Cc1ccco1)S(=O)(=O)c1ccc(CN2C(=O)c3cccnc3C2=O)s1 | inconclusive: 13% | –
O=C(CSc1nnc(-c2ccc(Cl)cc2)n1-c1ccccc1)N/N=C/c1ccccc1C(=O)O | inconclusive: -1.54% | –
Fc1ccc(N/N=C/c2ccncc2)c(F)c1 | inconclusive: 30.1% | –
Cc1ccc(-n2c(Cc3cccn3C)nnc2SCC(N)=O)cc1 | inconclusive: -10.3% | –
CC(C)n1c(SCCCc2ccccc2)nc2c1c(=O)[nH]c(=O)n2C | – | inconclusive: 10.3 µM [activator, partial curve]
CCOC(=O)NS(=O)(=O)c1ccc(CCNC(=O)c2cc(C)on2)cc1 | inconclusive: -9.13% | –
Cc1cc(-c2ccc(/C=N/n3cnnc3)o2)c([N+](=O)[O-])cc1C | inconclusive: -21.1% | –
CN=C1C([N+](=O)[O-])=CC=C2C1=NC1(CCCCC1)N2O | inconclusive: 77.7% | –
COc1ccccc1NC(=S)N1CCN(Cc2ccccc2)CC1 | inconclusive: 16.7% | –
Cc1cc2cc(CNC(=S)Nc3ccc(OC(F)F)cc3)ccc2n1C | – | inconclusive: 29.1 µM [falling, single point]
CCOC(=O)c1ccc(NC(=O)CN2CCN(C(=O)c3ccco3)CC2)cc1 | – | inconclusive: 0.731 µM [activator, partial curve]
Cn1cccc1P(=O)(c1cccn1C)c1cccn1C | – | active: 5.17 µM
NC(=NC(=O)c1ccc(OCC(F)(F)F)nc1)c1ccc(Cl)cc1 | inactive | –
Cc1nc2ncnn2c(C)c1CCC(=O)NC(C)CCc1ccco1 (stereo not given) | inactive | –
COc1ccc(NC(=O)C2CCN(c3nnnn3-c3ccccc3)CC2)cc1 | inconclusive: 8.7% | –
OCC[C@H]1C[C@H](O)[C@@H](O)[C@]2(Cc3ccccc3CO2)O1 | inconclusive: 46.4% | –
O=C1CCC/C(=N\NC(=O)c2ccc(COc3cccc4cccnc34)cc2)C1 | – | inconclusive: 0.082 µM [activator, partial curve, poor fit]
Cc1ccc2nsnc2c1S(=O)(=O)N(Cc1ccco1)Cc1cc2ccc(C)c(C)c2[nH]c1=O | inconclusive: 19.4% | –
COc1ccc(CNc2cc(C)nc3ccc(OC)cc23)cc1 | inconclusive: -0.876% | –
O=C(c1cc(-c2cccs2)nc2ccccc12)N1CCN(c2ccccc2)CC1 | inconclusive: 8.84% | –
CCc1ccccc1NC(=O)CCOc1ccccc1 | inconclusive: 14.6% | –
COc1ccc(NC(=O)Nc2ccc3c(c2)N(C)C(=O)CS3)cc1OC | inconclusive: 22.9% | –

SMILES | lipid storage change, negative = inhibition | Potency
COC(=O)c1cc(C(=O)OCC(=O)N(C)C2CCS(=O)(=O)C2)cc([N+](=O)[O-])c1 (stereo not given) | inconclusive: -19.4% | –
O=C(COC(=O)C(Cc1ccccc1)NC(=O)c1ccco1)NC1CC1 (stereo not given) | inconclusive: -14.6% | –
COc1ccc(/C(C)=N/NC(=S)NCCc2ccccc2)c(O)c1 | inconclusive: -125% | –
COc1cccc(-n2c(=O)c3sccc3n(CC(=O)NC3CCCCC3)c2=O)c1 | – | inconclusive: 29.1 µM [activator, single point]
COc1ccc(-c2noc(C3CCCN(C(=O)c4ccc(C)cc4)C3)n2)cc1 (stereo not given) | inactive | –
O=C(CNS(=O)(=O)c1ccc(Br)s1)N1CCN(C(=O)c2ccco2)CC1 | inconclusive: 4.17% | –
Cc1cccc(C(=O)NC2CCN(C(=S)NCc3ccco3)CC2)c1 | – | inconclusive: 2.06 µM [falling, partial curve]
CCS(=O)(=O)c1ccc2oc(Nc3ccccc3C)nc2c1 | inconclusive: 23.2% | –
CSc1ccc(/C=N/NC(=O)CN2CCN(Cc3ccc(Cl)cc3)CC2)cc1 | – | inconclusive: 0.291 µM [falling, partial curve, poor fit]
CCN(CC(=O)Nc1ccccc1OC)C(=O)C1CCC1 | inactive | –
CCOC(=O)C1=C(COC(=O)c2cccc(Br)c2)NC(=O)NC1C (stereo not given) | inconclusive: -0.895% | –
CC(=O)c1ccc(OCC(=O)N(C)CC(=O)Nc2ccc(N3CCOCC3)cc2)cc1 | inconclusive: 6.75% | –
O=C(NCCCO)C(=O)c1c(-c2ccccc2)cc2ccccn12 | inconclusive: -2.94% | –
CCOC(=O)C1=C(C)N=c2s/c(=C\c3cccc(OCC(=O)O)c3)c(=O)n2C1c1ccccc1 (stereo not given) | inconclusive: -55.5% | –
CCOC(=O)Cc1csc(NC(=O)CCCN2C(=O)c3ccccc3C2=O)n1 | inconclusive: 20.1% | –
Cc1ccc(N/N=C(\Cc2nc3ccccc3[nH]2)c2ccccc2)cc1 | inconclusive: -29.2% | –
Cc1ccc(C(=O)O/N=C(\N)Cc2cccc3ccccc23)cc1 | – | inconclusive: 29.1 µM [falling, single point]
Cc1nc(SCC(=O)N2c3ccccc3NC(=O)CC2C)c2c(C)c(C)sc2n1 (stereo not given) | – | inconclusive: 20.6 µM [falling, single point]
CCOC(=O)c1c(NC(=O)COC(=O)c2ccc(O)cc2)sc(C(=O)N(C)C)c1C | inconclusive: 12.9% | –
CC(=O)Nc1ccc(S(=O)(=O)NCCNS(=O)(=O)c2ccc(NC(C)=O)cc2)cc1 | inconclusive: 67.7% | –
Cc1cccc(-n2cnc3c(sc4nc(N5CCOCC5)c5c(c43)CCCC5)c2=O)c1 | inconclusive: 4.46% | –
CCN(CC)CCCn1c2c(c(SCC(=O)Nc3ccc(F)c(F)c3)nc1=O)CCC2 | inconclusive: -49.7% [at 0.0737 µM] | –
CSc1nc(Cl)cc(Nc2ccc(O)cc2)n1 | inconclusive: 12.6% | –
CC(C)NCC(O)COc1cccc2ccccc12 (stereo not given) | inconclusive: 26% | –
CCOC(=O)c1nnn(-c2nonc2-n2cccc2)c1CCl | inconclusive: -9.86% | –
CCCCNC(=O)C(=O)N/N=C/c1ccc(OCc2ccccc2)cc1 | inconclusive: -9.42% | –
CCC(C)c1ccccc1N1CC(C(=O)Nc2ccc(S(=O)(=O)N3CCOCC3)cc2)CC1=O (stereo not given) | inconclusive: -13.3% | –

SMILES | lipid storage change, negative = inhibition | Potency
O=C(Nc1ccc(F)cc1)c1ccc(-n2cncn2)c([N+](=O)[O-])c1 | inconclusive: -6.06% | –
COc1ccc(-n2c(SCC(=O)C(C)(C)C)nc3ccsc3c2=O)cc1 | inconclusive: 9% | –
O=C(NC(Cc1ccccc1)C(=O)N1CCN(c2ccccc2O)CC1)c1ccccc1 (stereo not given) | inconclusive: 23.7% | –
O=C(CCN1CCN(CCO)CC1)Nc1ccc(OCc2ccccc2)cc1 | inconclusive: 8.54% | –
CN1CCN(c2ccc(S(=O)(=O)N3CCCCC3)cc2N)CC1 | inconclusive: 4.9% | –
COC(=O)Nc1ccc2c(c1)N(C(=O)CCN1CCN3CCCC3C1)c1ccccc1CC2 (stereo not given) | inconclusive: -43.2% | –
COc1ccc(Nc2ccc([N+](=O)[O-])cn2)cc1 | inactive | –
O=C(Nc1c(S(=O)(=O)c2ccc(Cl)cc2)csc1Br)c1ccccc1Cl | inconclusive: 12.1% | –
O=C(Oc1ccc2c3c(c(=O)oc2c1)CCC3)c1ccccc1[N+](=O)[O-] | inconclusive: 2.33% | –
CCN(CC)c1ccc(NC(=O)c2ccccc2)cc1S(=O)(=O)Nc1ccccc1OC | inconclusive: 6.69% | –
CC(/C=C/c1ccc2c(c1)OCO2)=N/NC(=O)c1ccncc1 | inconclusive: -4.63% | –
Cc1nnc2n(c1=O)C(CS(=O)(=O)c1ccccc1)CS2 (stereo not given) | inconclusive: -36.7% | –
Cc1ccc2sc(N3CCN(CCNC(=O)c4ccco4)CC3)nc2c1C | inconclusive: -30.2% | –
COc1ccc(/C=C/C(=O)OCC(=O)Nc2ccc3c(c2)OCO3)cc1 | – | inconclusive: 0.461 µM [activator, full curve]
C=C(C)CN(CC)C(=O)CN1C(=O)NC2(CCc3ccccc32)C1=O (stereo not given) | – | inconclusive: 29.1 µM [falling, single point]
COc1ccc(NC(=O)c2nc(C)c(C3(C)CC(c4cccnc4)=NO3)s2)cc1 (stereo not given) | – | inconclusive: 0.58 µM [activator, partial curve]
O=C(NCCc1nc2ccccc2[nH]1)c1ccc(Cl)c([N+](=O)[O-])c1 | – | inconclusive: 29.1 µM [falling, single point]
COc1cc(Cl)c(C)cc1NC(=O)CSc1nnc(-c2ccccn2)n1Cc1ccco1 | – | inconclusive: 20.6 µM [activator, single point]
CCOc1c(C)cnc2c1c(=O)n(Cc1ccccc1F)c(=O)n2C | inconclusive: 33.8% | –
N#CCCN(CCC#N)C(=O)C1c2ccccc2Oc2ccccc21 | inconclusive: 27.4% | –
CCN(Cc1ccccc1)C(=O)Cn1c(=O)n(CC(=O)NCc2ccco2)c(=O)c2sccc21 | inconclusive: -5.09% | –
CSc1cc(C)n(-c2ccc(Cl)cc2)c(=S)c1C(C)=O | inactive | –
Cc1ccc(NC(=O)c2ccc3c(c2)N(CC(=O)N2CCCCC2)C(=O)C(C)(C)O3)cc1 | – | inconclusive: 2.31 µM [activator, partial curve]
CCOc1ccc(NC(N)=O)cc1 | inactive | –
COc1ccc(NC(=O)C/C(C)=N/NC(=O)c2ccccn2)c(OC)c1 | inconclusive: -12.4% | –
CCOC(=O)c1c(-n2cccc2)sc2c1CCCC2=O | inactive | –

By substructure, the compounds so far with an NH in an aromatic ring (4)
SMILES | lipid storage change, negative = inhibition | Potency
CC(C)n1c(SCCCc2ccccc2)nc2c1c(=O)[nH]c(=O)n2C | – | inconclusive: 10.3 µM [activator, partial curve]
Cc1ccc2nsnc2c1S(=O)(=O)N(Cc1ccco1)Cc1cc2ccc(C)c(C)c2[nH]c1=O | inconclusive: 19.4% | –
Cc1ccc(N/N=C(\Cc2nc3ccccc3[nH]2)c2ccccc2)cc1 | inconclusive: -29.2% | –
O=C(NCCc1nc2ccccc2[nH]1)c1ccc(Cl)c([N+](=O)[O-])c1 | – | inconclusive: 29.1 µM [falling, single point]
